Measured values from patent US20090118165A1 (CASE WESTERN RESERVE UNIVERSITY, published 2009).
Results are given in words; binding and its absence hold for the method and conditions named. In cells and extracts the contact can be indirect. Some results given as binding are weak or reduced against the parent protein; the word gives no strength.

Protein sequences, listed by entry. Tags and fused reporters are not part of them.
UniProt Q07812: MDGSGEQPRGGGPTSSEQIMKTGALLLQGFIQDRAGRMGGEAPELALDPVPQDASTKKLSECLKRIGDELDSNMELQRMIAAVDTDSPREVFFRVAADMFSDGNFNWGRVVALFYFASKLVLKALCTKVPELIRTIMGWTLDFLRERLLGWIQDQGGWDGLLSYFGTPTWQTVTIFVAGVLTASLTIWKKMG

B1: biotin-labeled VPMLK (SEQ ID NO:2), human version of Bax-inhibiting peptide (peptide)
peptide: VPMLK
modifications: biotin label (position not given)
B2: biotin-labeled VPTLK (SEQ ID NO:5), mouse version of Bax-inhibiting peptide (peptide)
peptide: VPTLK
modifications: biotin label (position not given)
B3: biotin-labeled VPALR (SEQ ID NO:6), rat version of Bax-inhibiting peptide (peptide)
peptide: VPALR
modifications: biotin label (position not given)

target: Bax (endogenous, in lysate of human Dami megakaryocytic cells) (human) (UniProt Q07812); test: pull-down of biotin-labeled peptide (200 µM) with streptavidin beads from Dami cell lysate, Western blot with anti-Bax antibody

binding, binds:
B1
B2
B3
